Data reported in US20040249129A1, “Novel lactic bacteria of the genus lactococcus lactis and use thereof for preserving food products” (priority 2001, published 2004).
At least one structure is not confirmed: it was looked up by name or label, or the drawing left a doubt.

Test system: LLO strain
Assay: antibiogram of the strain LLO with antibiotic discs
Assay type: cell-based, Lactococcus lactis
Details: antibiotic discs on Mueller Hinton medium, 5% horse blood, pH 7.3; 48 hours at ambient temperature; streptomycin 10 U.I., kanamycin 30 U.I., gentamicin 10 U.I.
Experimental: An antibiogram has been produced with the strain LLO to study its resistance to several antibiotics.
The test is carried out on Mueller Hinton medium containing 1.7% agar and 5% horse blood, the pH is 7.3. The thickness of the agar in the Petri dishes is constant, it is 4 mm. It is a standardized medium according to the O.M.S. standards.
The LLO strain is cultivated in an MRS broth, pH 6.5, for […] at 15° C. until there is obtained the stationary phase. The culture is diluted to 1/10th in a Mueller Hinton broth. The approximate concentration of the suspension is 10^6 bacteria/ml.
The agar media are completely covered with 2 ml of the suspension. The excess liquid is withdrawn and the dishes are dried 10 minutes at ambient temperature. The antibiotic discs are deposited with the help of tongs (4 maximum). The dishes are incubated at ambient temperature for 48 hours.

SMILES	Result (antibiogram)
CCC[C@@H]1C[C@@H](C(=O)N[C@@H]([C@H]2O[C@H](SC)[C@H](O)[C@@H](O)[C@H]2O)[C@H](C)Cl)N(C)C1 [Clindamycin]	Noticeable
NC[C@H]1O[C@H](O[C@H]2[C@H](O)[C@@H](O[C@H]3O[C@H](CO)[C@@H](O)[C@H](N)[C@H]3O)[C@H](N)C[C@@H]2N)[C@H](O)[C@@H](O)[C@@H]1O [Kanamycin]	Noticeable
